# Reference: PubChem BioAssay AID493014 (National Center for Advancing Translational Sciences (NCATS), 2011)
# The list shows a part of the results. Further columns of the screen follow, without active or inactive calls. Most of these compounds were active or inconclusive in the main read-out, so they are no random draw. The note in brackets gives the kind of curve behind each potency; many fits are weak.
# Assay: qHTS Assay to Find Inhibitors of Chronic Active B-Cell Receptor Signaling
# Conditions: ABC-DLBCL IkBa-CBG/CBR reporter, luminescence ratio (green luciferase fused to IkBa over red control in TMD8 lymphoma cells), 4 h
# In short: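 Doxycycline induced both beetle luciferases in TMD8 lymphoma cells; IKK-driven degradation limits the IkappaBalpha-fused green signal, while red luminescence normalises for cell number and nonspecific effects. Compounds tested up to 46 uM, 4 hrs.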
# [1] = measured here: CBR red luminescence, cell number
# [2] = measured here: IkBa-CBG green luminescence
Compound,AC50 [1],AC50 [2]
Cc1c(CCOC(=O)C23CC4(C)CC(C)(CC(C)(C4)C2)C3)sc[n+]1CC(=O)c1ccccc1,"14.1 µM [falling, single point]",
O=C(NC1(C(F)(F)F)C(=O)Nc2c1c(=O)[nH]c(=O)n2Cc1ccccc1)c1ccco1 (stereo not drawn),"0.562 µM [falling, partial curve, poor fit]",
CCOC(=O)c1c(C)[nH]c(C)c1S(=O)(=O)NCC1CCN(Cc2ccccc2F)CC1,"14.1 µM [rising, partial curve, poor fit]",
CCOP(=O)(c1ccc(N(C)C)cc1)C(O)c1ccc(C)cc1 (stereo not drawn),"3.98 µM [rising, full curve, poor fit]",
CCC1(C)Cc2c(sc3nc(SCC(=O)c4ccccc4)[nH]c(=O)c23)CO1 (stereo not drawn),"0.398 µM [falling, full curve, poor fit]",
CCOC(=O)c1ccc2c(c1)nc(-c1ccccn1)n2CC,"20 µM [rising, single point]",
COc1ccc(OC)c(C(=O)/C=C/c2ccccc2C(F)(F)F)c1,"11.2 µM [falling, single point]",
COc1cccc(C(=O)N/N=C/c2ccc(Oc3ccc([N+](=O)[O-])cn3)c(OC)c2)c1,"6.51 µM [falling, partial curve]",
O=C(COc1ccccc1-c1ccccc1)N/N=C/c1ccccn1,"35.5 µM [rising, single point]","35.5 µM [falling, single point]"
CCOc1ccc2nc(NC(=O)C(CC)Sc3nc(C)cc(=O)[nH]3)sc2c1 (stereo not drawn),"1.16 µM [rising, full curve, poor fit]",
COCC(=O)n1cc(C(=O)OC)c2ccccc21,"29.1 µM [rising, single point]",
COc1ccc(N=C2C(=Nc3ccc(OC)cc3)N(c3ccccc3)C(=S)N2C(=O)c2ccc(Cl)cc2)cc1,"29.1 µM [falling, single point]",
CCCc1ccc(-c2cc(NC(=O)CSc3nnc(N)s3)n(-c3ccccc3)n2)cc1,"5.8 µM [rising, partial curve, poor fit]",
Fc1ccc(C(c2nnnn2C2CCCCC2)N2CCCC2)cc1 (stereo not drawn),"20 µM [falling, partial curve, poor fit]",
COc1cc(OC)cc(C(=O)N[C@H](C(=O)OCC(=O)Nc2ccc(C)cc2C)C(C)C)c1,"6.51 µM [rising, single point]",
Cc1nc(N2CCN(c3ccccc3)CC2)[nH]c(=O)c1Cc1cccc2ccccc12,"25.1 µM [rising, single point]",
COc1ccc(CNC(=O)CSC(=S)N2CCCC2)cc1,"2.91 µM [falling, full curve, poor fit]",
COc1ccccc1CC(=O)Nc1ccc(-c2noc(COc3cccc(C)c3C)n2)cc1,"5.8 µM [falling, partial curve, poor fit]",
CCN(C(=O)COC(=O)c1cccnc1SC)C1CCS(=O)(=O)C1 (stereo not drawn),"14.6 µM [falling, partial curve, poor fit]",
CN(C)C(=O)c1ccc2c(c1[N+](=O)[O-])C(=O)c1ccccc1C2=O,"0.13 µM [rising, full curve, poor fit]",
CCC(=O)N1CCc2cc(S(=O)(=O)Nc3ccc4c(c3)OCCO4)ccc21,"0.58 µM [falling, partial curve, poor fit]",

# As a short view, two of the compounds above.
Compound,AC50 [1],AC50 [2]
COc1ccccc1CC(=O)Nc1ccc(-c2noc(COc3cccc(C)c3C)n2)cc1,"5.8 µM [falling, partial curve, poor fit]",
CCN(C(=O)COC(=O)c1cccnc1SC)C1CCS(=O)(=O)C1 (stereo not drawn),"14.6 µM [falling, partial curve, poor fit]",

# (listing goes on)

Compound,AC50 [1],AC50 [2]
N#Cc1c(NC(=O)CSc2ncn[nH]2)sc2c1CCCC2,,"9.2 µM [falling, partial curve, poor fit]"
Cc1nn(-c2ccccc2)c2c1C1(C(=O)N(C)c3ccccc31)N(c1ccccc1)C(=O)N2 (stereo not drawn),"14.1 µM [falling, partial curve]",
CCCCCCC(=O)NNC(=O)CC(=O)Nc1ccccc1C(=O)O,"3.26 µM [rising, partial curve, poor fit]",
Cc1cc(C)cc(NS(=O)(=O)c2ccc3[nH]cc(C(=O)NCc4ccccc4Cl)c(=O)c3c2)c1,"11.2 µM [falling, partial curve, poor fit]",
CC(C)(c1ccccc1)c1ccc(OCCCN2CCNCC2)cc1,"35.5 µM [falling, single point]",
COc1ccc(-c2nc(S(=O)(=O)c3ccc(C)cc3)c(N3CCCC3)o2)cc1,"0.651 µM [falling, full curve, poor fit]",
Cc1ccc(C(F)(F)F)cc1NC(N)=S,"0.891 µM [rising, full curve, poor fit]",
C/C(=C\c1ccccc1)C(=O)Nc1nc2ccc([N+](=O)[O-])cc2s1,"0.92 µM [rising, full curve, poor fit]",
COc1ccc(CNC(=O)CN(C(=O)CCC(=O)Nc2ccccn2)c2cccc(C)c2C)cc1,"10 µM [falling, partial curve]",
Cc1ccc(/C=C2/NC(=O)N(Cc3ccccc3F)C2=O)s1,,"1.12 µM [rising, full curve, poor fit]"
COc1ccc(NC(=S)NN2C(C)CCCC2C)cc1 (stereo not drawn),"0.00411 µM [falling, full curve, poor fit]",
COC(=O)C(Cc1ccc(OC(=O)c2ccccc2C)cc1)N1Cc2ccccc2C1=O (stereo not drawn),"29.1 µM [falling, single point]",
O=C(O)/C=C\C(=O)Nc1ccccc1C(=O)N1CCN(c2ccc(Cl)cc2)CC1,"10.3 µM [falling, partial curve, poor fit]",
CCOCCCNC(=S)NNC(=O)CCn1nc(C)c(Br)c1C,"32.6 µM [falling, single point]","29.1 µM [falling, single point]"
Cc1cc(C(=O)COC(=O)CCCN2C(=O)c3ccccc3C2=O)c(C)n1C,"11.2 µM [rising, partial curve, poor fit]",
O=C(c1cccs1)n1nc(-c2ccco2)nc1SCc1ccccc1,"29.1 µM [falling, single point]",
Cc1cnc(C(=O)Nc2ccc(F)cc2)cn1,"5.01 µM [falling, partial curve, poor fit]",
O=C(O)c1ccc(-c2nc(-c3ccccc3)c(-c3cccs3)[nH]2)cc1,"5.62 µM [falling, partial curve, poor fit]",
CCOc1cc2c(cc1/C=C(/C#N)c1ccc(C(=O)O)cc1)OCO2,"11.2 µM [falling, single point]",
CC(=O)Nc1ccc(S(=O)(=O)N2CCCCC2C(=O)O)cc1 (stereo not drawn),"14.1 µM [rising, partial curve, poor fit]",
CC(C)(C)c1ccc(-c2noc(CNC(=O)c3ccco3)n2)cc1,"8.91 µM [rising, partial curve, poor fit]",

Compound,AC50 [1],AC50 [2]
O=C(Nc1cccc(NC(=O)c2cccs2)c1)c1ccc(Br)o1,"7.08 µM [falling, full curve, poor fit]",
COc1ccc(NC(=S)N/C(=N/CS(=O)(=O)c2ccccc2)c2ccccc2)cc1,"29.1 µM [falling, single point]",
CSc1nc2ccc(NC(=O)c3ccc(=O)[nH]c3)cc2s1,"3.98 µM [rising, full curve]",
O=C1CSC2(C(=O)N(Cc3ccccc3)c3ccccc32)N1c1ccc(Cl)cc1 (stereo not drawn),"11.2 µM [falling, partial curve, poor fit]",
CCOc1cc(S(=O)(=O)N(CC)CC)ccc1Br,"18.4 µM [rising, single point]",
Cc1cccn2cc(-c3cccc(S(=O)(=O)N4CCOCC4)c3)nc12,"11.2 µM [rising, partial curve, poor fit]",
O=C1N/C(=N/S(=O)(=O)Cc2ccccc2)S/C1=C/c1ccc2c(c1)OCO2,"8.91 µM [falling, partial curve]",
COc1cccc(CNC(=O)C(=O)NCC2CCCO2)c1 (stereo not drawn),"11.6 µM [falling, partial curve]",
Cc1cccc(-c2nsc(SCC(=O)N3CCCC3)n2)c1,"0.1 µM [rising, full curve, poor fit]",
NS(=O)(=O)c1ccc(CCNC(c2ccccc2)c2ccccc2)cc1,"7.94 µM [falling, partial curve, poor fit]",
COc1cc(OC)c(NC(=O)CN(C)S(=O)(=O)c2ccc3[nH]c(=O)oc3c2)cc1Cl,"7.94 µM [rising, partial curve, poor fit]",
CSCCC(NC(=O)c1ccccc1)C(=O)N1CC(C)OC(C)C1 (stereo not drawn),"20.6 µM [rising, single point]",
C[C@@]12CCC=C[C@H]1[C@H](c1ccc3ccccc3c1/C=C/c1ccccc1)N(Cc1ccccc1)C2=O,"0.0891 µM [rising, full curve, poor fit]",
CC(C)(C)NC(=O)/C=C/c1ccc(C(F)(F)F)cc1,"16.4 µM [rising, partial curve]",
CN1/C(=C/C(=O)c2nc(S(C)(=O)=O)ncc2Cl)C(C)(C)c2ccccc21,"20 µM [falling, partial curve, poor fit]",
N#C/C(=C(/O)CSc1ccccn1)c1nc2ccccc2s1,"2.24 µM [falling, partial curve]",
COc1cc(C(=O)OCCNC(=O)c2ccncc2)cc(OC)c1OC,"4.61 µM [rising, single point]",
Cc1cccc(N2C(=O)CC(Sc3nnc(C)s3)C2=O)c1 (stereo not drawn),"18.4 µM [falling, single point]",
O=C(C(Cc1ccccc1)n1cccc1)N1CCN(c2ccccc2)CC1 (stereo not drawn),"32.6 µM [falling, single point]",
